Experimental data: PubChem BioAssay AID2685 (National Center for Advancing Translational Sciences (NCATS), 2010)
This is one part of the list. The main result of the screen is listed elsewhere. These columns were measured beside it and carry no call. The list favours compounds with an active or inconclusive main result. The note in brackets gives the kind of curve behind each potency; many fits are weak.

Experiment: qHTS Assay for Lipid Storage Modulators in Drosophila S3 Cells;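 for cell number change: cells counted by Cell Tracker Red CMTPX staining in the red channel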
Settings: BODIPY lipid droplet fluorescence, 18-24 h; for cell number change: measured here: cell count max response, cells fed with added oleic acid
In short: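 Drosophila S3 cells got compounds at several concentrations plus oleic acid (400 uM solution). Laser-scanning cytometry with 488 nm excitation read lipid droplets at 500-530 nm and cells at 575-640 nm. Percent activity was relative to 20 uM Triacsin C.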

[1] = measured here: cell number channel AC50, cells fed with added oleic acid
[2] = measured here: lipid fluorescence (Fed channel) AC50, cells fed with added oleic acid

CCc1nnc(NC(=O)C2CCN(C(=O)c3ccccc3C)CC2)s1
cell number change: 37% | AC50 [1]: 14.6 µM [rising, single point]

CC(C)CN(CCOc1cccc(N2C(=O)C3=C(CCCC3)C2=O)c1)CC(C)C
cell number change: 19.8% | AC50 [2]: 20.6 µM [rising, single point]

COCCNCCCCOc1ccccc1-c1ccccc1
cell number change: 86.4% | AC50 [1]: 5.8 µM [rising, full curve] | AC50 [2]: 29.1 µM [rising, single point]

Cn1c(=O)oc2ccc(C(=O)CSc3nnnn3-c3ccccc3)cc21
cell number change: -22.9% | AC50 [2]: 0.00411 µM [rising, full curve, poor fit]

Cc1ccccc1OCC(=O)N=Nc1c(O)n(C)c2ccccc12
cell number change: 7.36% | AC50 [2]: 4.11 µM [rising, full curve, poor fit]

Cc1cc(C)cc(NC(=O)CCN2C(=O)c3ccccc3C2=O)c1
cell number change: 4.72%

O=[N+]([O-])c1ccc(/C=N\NS(=O)(=O)c2ccc(F)cc2)o1
cell number change: 70.3% | AC50 [1]: 29.1 µM [rising, single point] | AC50 [2]: 29.1 µM [rising, single point]

c1ccc(C[C@H]2CNCCN2CC2(c3ccccc3)CC2)cc1
cell number change: -1.58% | AC50 [2]: 3.26 µM [falling, single point]

O=C(Nc1ncccc1O)c1ccc2ccccc2c1
cell number change: 13% | AC50 [1]: 2.31 µM [rising, partial curve, poor fit] | AC50 [2]: 29.1 µM [falling, single point]

COc1ccc(CCNC(=O)c2ccc3nc(N4CCCCC4)sc3c2)cc1OC
cell number change: -33.2% | AC50 [1]: 20.6 µM [falling, single point]

N#Cc1c(N2CCN(C(=O)c3ccco3)CC2)nc(-c2ccccc2)c2c1CCCC2
cell number change: -39.6% | AC50 [1]: 29.1 µM [falling, single point] | AC50 [2]: 29.1 µM [falling, single point]

O=C(N/N=C/c1ccncc1)c1ccccn1
cell number change: -39% | AC50 [1]: 14.6 µM [falling, partial curve, poor fit]

CNC(=O)c1ccccc1NC(=O)c1ccc(C)c(S(=O)(=O)N2CCCCC2)c1
cell number change: -27%

CCCN(CCC)CCNS(=O)(=O)c1ccc2c(c1)CCN2C(=O)C1CCC1
cell number change: 6.97% | AC50 [2]: 0.146 µM [falling, full curve, poor fit]

CCOC(=O)c1c(NC(=O)COc2ccccc2OCC)sc2c1CC(C)(C)NC2(C)C
cell number change: -65.9% | AC50 [1]: 20.6 µM [falling, partial curve]

O=C(OCCN=C1NS(=O)(=O)c2ccccc21)c1cccs1
cell number change: 4.93% | AC50 [1]: 0.00411 µM [rising, full curve, poor fit] | AC50 [2]: 6.51 µM [rising, single point]

NC(=O)c1ccc(NC(=O)CCCN2C(=O)NC3(CCCC3)C2=O)cc1
cell number change: -9.77% | AC50 [2]: 20.6 µM [rising, single point]

CCC1CN(C(=O)N2CCC(C(=O)NCc3ccccc3OC)CC2)c2cc(C)ccc2O1 (centres undefined)
cell number change: -15.3% | AC50 [2]: 6.51 µM [rising, single point]

COc1ccc(-n2ncc(C(C)NS(=O)(=O)c3cccs3)c2C)cc1 (centres undefined)
cell number change: 6.25%

CCOC(=O)C1(CCOc2ccccc2)CCN(Cc2ccc(CO)o2)CC1
cell number change: -16.5%

CC(C)(C)C(=O)Nc1ccc(-c2nnc3n2CCCCC3)cc1
cell number change: 13% | AC50 [2]: 0.103 µM [rising, full curve, poor fit]

COc1ccc(CC(C)CC(=O)NCCc2ccc(OC)c(OC)c2)cc1 (centres undefined)
AC50 [1]: 0.116 µM [rising, full curve, poor fit]

CCOC(=O)CNc1ccc(OC(F)(F)F)cc1
cell number change: -20.6% | AC50 [1]: 0.58 µM [falling, single point]

Fc1ccc(CNC(=S)Nc2ccccc2Cl)cc1
cell number change: 37.1% | AC50 [1]: 29.1 µM [rising, single point]

N#Cc1ccc(CN2CCN(C(=O)c3ccc(S(=O)(=O)N4CCCCCC4)cc3)CC2)cc1
cell number change: -10.9%

O=C(NN1CCOCC1)c1ccc(Cl)c(Cl)c1
cell number change: -9.19% | AC50 [2]: 16.4 µM [falling, single point]

O=C(O)CCN1C(=O)/C(=C2\C(=O)N(Cc3ccccc3Cl)c3ccccc32)SC1=S
cell number change: 22% | AC50 [2]: 11.6 µM [rising, partial curve, poor fit]

O=C(COC(=O)c1ccco1)c1ccc(Cl)cc1
AC50 [2]: 6.51 µM [rising, single point]

CC(C)(C)c1nn(-c2ccccc2)c2[nH]c(=O)c(CNCc3ccco3)cc12
cell number change: -20.9% | AC50 [2]: 7.31 µM [falling, single point]

Cc1ccc(CNC(=O)c2ccc(NC3=NC4CS(=O)(=O)CC4S3)cc2)cc1 (centres undefined)
cell number change: 20.7%

COc1ccc(C2=NS(=O)(=O)N(C)C(C(=O)N3CCc4ccccc4C3)=C2)cc1OC
cell number change: -30.5% | AC50 [1]: 20.6 µM [falling, partial curve, poor fit]

COc1ccc(/C=N/Nc2cc(C)nc(-n3nc(C)cc3C)n2)c(OC)c1
cell number change: -24.7% | AC50 [2]: 13 µM [falling, partial curve, poor fit]

CC(=O)Oc1ccccc1N1C(=O)c2ccc(C(=O)O)cc2C1=O
cell number change: -35.5% | AC50 [1]: 0.164 µM [falling, full curve, poor fit] | AC50 [2]: 0.411 µM [falling, partial curve, poor fit]

CNC(=O)c1cc(S(=O)(=O)NC2CCCCCC2)ccc1C
cell number change: -9.39% | AC50 [2]: 29.1 µM [falling, single point]

CCOCCCNC(=S)Nc1ccc2nc(N3CCN(CC)CC3)cc(C)c2c1
AC50 [2]: 25.9 µM [rising, single point]

Cc1cc(NC(=O)C2CCCCC2)ccc1NC(=O)c1ccccc1Cl
cell number change: 2.97% | AC50 [1]: 3.66 µM [rising, single point]

O=C(Nc1ccc(Br)cc1)Nc1ccccc1Cl
cell number change: -50% | AC50 [1]: 23.1 µM [falling, single point] | AC50 [2]: 16.4 µM [falling, single point]

CCOc1cccc(-c2nnc(SCC(=O)Nc3ccc(OC)c(OC)c3)n2N)c1
cell number change: 8.95% | AC50 [2]: 0.731 µM [rising, partial curve, poor fit]
